# Test results: PubChem BioAssay AID1671190 (National Center for Advancing Translational Sciences (NCATS), 2021)
# The chains behind the UniProt entries cited, without tags or fusion partners. Where a name states a change or a piece, a line headed by the entry shows the natural chain unless it says otherwise.
# UniProt P18054: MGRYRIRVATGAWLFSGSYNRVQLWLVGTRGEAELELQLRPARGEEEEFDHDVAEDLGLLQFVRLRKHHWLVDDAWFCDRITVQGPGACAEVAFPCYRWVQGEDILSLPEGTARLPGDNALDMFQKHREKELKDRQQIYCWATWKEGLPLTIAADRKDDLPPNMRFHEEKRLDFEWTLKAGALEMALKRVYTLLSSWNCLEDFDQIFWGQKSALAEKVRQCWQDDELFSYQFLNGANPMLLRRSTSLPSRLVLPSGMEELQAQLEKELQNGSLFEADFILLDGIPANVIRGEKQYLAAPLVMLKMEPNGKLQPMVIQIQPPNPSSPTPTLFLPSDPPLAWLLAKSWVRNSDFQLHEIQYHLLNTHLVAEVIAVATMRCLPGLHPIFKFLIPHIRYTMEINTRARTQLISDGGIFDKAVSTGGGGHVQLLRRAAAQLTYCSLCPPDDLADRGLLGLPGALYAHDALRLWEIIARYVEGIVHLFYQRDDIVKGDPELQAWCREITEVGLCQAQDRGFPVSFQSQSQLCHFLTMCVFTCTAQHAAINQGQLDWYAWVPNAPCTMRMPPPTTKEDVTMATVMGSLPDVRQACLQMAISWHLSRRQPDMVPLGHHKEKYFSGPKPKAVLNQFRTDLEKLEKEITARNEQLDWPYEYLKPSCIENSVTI
# Several values for one entry are separate records, joined by “and”; a condition that tells them apart may be missing. Equal values may be shown once. In all, about 580,000 compounds went through this assay and about 6,100 (1.1%) were called active. The inconclusive results got no clear call from the source; some entries with a clear call stand among them for comparison. Calls come from the whole dose curve; as a rule, active = well fitted inhibition curve with a large enough effect; inconclusive = small, poorly fitted or top-dose-only effect, or another doubt; inactive = no such curve, though single readings can be large or run the other way. A potency beside an inconclusive call is a rough fit, not a confirmed value.
# Target: Polyunsaturated fatty acid lipoxygenase ALOX12 (Homo sapiens) (UniProt P18054)
# Test: Primary qHTS assay for inhibitors of human arachidonate 12S-lipoxygenase (ALOX12): Round 2
# Conditions: purified 12hLO, xylenol orange hydroperoxide absorbance; series mostly up to 108 µM
# Summary of the method: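 Purified human 12hLO (150 nM final) in 25 mM Hepes, 0.01% Triton X-100, pH 7.0 was preincubated 15 min at room temperature with compound. Then 40 uM arachidonic acid was added, 30 min. Hydroperoxide was read by Fe-XO absorbance ratio 573/405 nm.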
# Potency is the fitted concentration of half-maximal effect.
row,SMILES,Potency
1,COc1ccc(-c2cn3c(n2)sc2cc(C(=O)NC(C)C45CC6CC(CC(C6)C4)C5)ccc23)cc1 (stereo unspecified),"inconclusive: 22.4 µM [inhibitor, partial curve, poor fit]"
2,Cc1ccc(C(=O)Nc2cc3ccccc3oc2=O)cc1,"inconclusive: 44.7 µM [inhibitor, partial curve, poor fit]"
3,S=c1[nH]nc(-c2cccnc2)n1/N=C/C=C/c1ccccc1,"inconclusive: 70.8 µM [inhibitor, partial curve, poor fit]"
4,N#Cc1c(/N=C/c2c(F)cccc2Cl)sc2c1CCCC2,"inconclusive: 35.5 µM [inhibitor, partial curve, poor fit]"
5,COCc1cc(C)nc2sc3c(c12)NC(c1ccccc1C(=O)O)N(c1cccc(C(F)(F)F)c1)C3=O (stereo unspecified),"inconclusive: 100 µM [inhibitor, partial curve, poor fit]"
6,O=C(O)c1cnc(/C=C/c2cc(Cl)c3c(c2)OCCCO3)s1,inactive
7,CCc1cc(=O)oc2cc(C)cc(OCC(=O)NCCCN(C)C)c12,inactive
8,CN1CCN(c2c(F)cc3c(=O)c(C(=O)O)cn4c3c2OCN4C)CC1,"inconclusive: 21.7 µM [inhibitor, partial curve, poor fit] and inconclusive: 89.1 µM [inhibitor, partial curve, poor fit]"
9,CCN(CCN(C)C)C(=O)Cn1ncc2c([nH]c3ccc(C)cc32)c1=O,"inconclusive: 126 µM [inhibitor, partial curve, poor fit]"
10,COc1ccc(CN2CCc3ncc(C(=O)N4CCC(c5ccccc5)CC4)n3CC2)cn1,inactive
11,Cn1cccc1/C=C1\SC(=O)N(CC(=O)Nc2ccc(F)cc2)C1=O,"inconclusive: 112 µM [inhibitor, partial curve, poor fit]"
12,CCOc1cc(C(=O)Nc2cccc(Cl)c2N2CCCC2)cc(OCC)c1OCC,"inconclusive: 50.1 µM [inhibitor, single point]"
13,O=c1cc(CN2CCCCCC2)nc2sccn12,"inconclusive: 17.8 µM [inhibitor, full curve, poor fit]"
14,CCCCn1c(CN2CCN(c3ccc(OC)cc3)CC2)nc2c1c(=O)[nH]c(=O)n2C,"inconclusive: 63.1 µM [inhibitor, partial curve, poor fit]"
15,O=C1c2nc3cc(-c4ccco4)[nH]n3c(=O)c2CN1Cc1ccccc1,active: 22.4 µM
16,CCc1nn2c(=O)cc(CNc3ccc(C(=O)NCC(=O)OC)cc3)nc2s1,"inconclusive: 28.2 µM [inhibitor, partial curve, poor fit]"
17,COc1cccc(C(NC(C)=O)c2nc(-c3ccccc3C)cs2)c1 (stereo unspecified),"inconclusive: 112 µM [inhibitor, single point]"
18,CC1CCCCC1NC(=O)C1CC=CCC1 (stereo unspecified),inactive
19,CN(C)C(=O)c1cc(C(=O)c2ccc(F)cc2Cl)c[nH]1,"inconclusive: 35.5 µM [inhibitor, partial curve, poor fit]"
20,COc1ccc(NC(=O)C(Cc2ccccc2)n2cccc2)cc1 (stereo unspecified),inactive
21,N#Cc1ccc(/C=N/NC(=S)Nc2ccc(S(=O)(=O)N3CCOCC3)cc2)cc1,"inconclusive: 28.2 µM [inhibitor, partial curve, poor fit]"

# Single entries from the results shown.
# For Potency, `N#Cc1c(/N=C/c2c(F)cccc2Cl)sc2c1CCCC2` is entered as inconclusive: 35.5 µM [inhibitor, partial curve, poor fit]
# For Potency, `COc1ccc(CN2CCc3ncc(C(=O)N4CCC(c5ccccc5)CC4)n3CC2)cn1` is entered as inactive
# For Potency, `O=C(O)c1cnc(/C=C/c2cc(Cl)c3c(c2)OCCCO3)s1` is entered as inactive

# The results go on.

row,SMILES,Potency
1,COC(=O)C1=C(C)NC(=O)NC1c1ccc(N2CCC(c3ccccc3)=N2)cc1 (stereo unspecified),inactive
2,Cc1ccc(CN2CCN(/N=C/c3ccc(Cl)c([N+](=O)[O-])c3)CC2)cc1,inactive
3,CCOc1ccc(NC(=O)C2CCN(S(C)(=O)=O)CC2)cc1,"inconclusive: 1.26 µM [inhibitor, partial curve, poor fit]"
4,COc1cccc(-c2cn(C3CCN(C(=O)c4ccc(Cl)cc4)CC3)c(=O)[nH]2)c1,"inconclusive: 28.2 µM [inhibitor, partial curve, poor fit]"
5,O=C(CSc1ccc2ccccc2c1)Nc1ccc2c(c1)OCCO2,"inconclusive: 39.8 µM [inhibitor, partial curve, poor fit]"
6,CSc1ccc(CN2CCC(C)(Oc3ccc(C(C)=O)cc3)C2)cc1 (stereo unspecified),"inconclusive: 112 µM [inhibitor, single point]"
7,CN(C)CCCNC(=O)C[C@H]1C[C@H](C(=O)N2CCOCC2)[C@@]2(C)c3[nH]c4cc(-c5ccco5)ccc4c3CCN2C1=O,"inconclusive: 89.1 µM [inhibitor, single point]"
8,O=Cc1ccc(OCc2ccc(Cl)cc2Cl)cc1,"inconclusive: 14.1 µM [inhibitor, full curve]"
9,COc1ccc(C(=O)c2sc(Nc3ccc(C)cc3)nc2N)cc1OC,inactive
10,Cc1ccc2c(=O)cc(C(=O)Nc3nc4ccc(C)cc4s3)oc2c1,"inconclusive: 35.5 µM [inhibitor, partial curve]"
11,CCN(CC)c1ccc(/C=C/c2ccc3ccc(OC)cc3[n+]2CC)cc1,"inconclusive: 70.8 µM [inhibitor, partial curve, poor fit]"
12,O=C(O)/C=C/c1ccc(-c2ccccc2)o1,"inconclusive: 35.5 µM [inhibitor, partial curve, poor fit]"
13,COC(=O)C(CC(=O)c1ccc(Br)cc1)(Cc1ccc(Br)cc1)C(=O)OC,"inconclusive: 22.4 µM [inhibitor, partial curve, poor fit]"
14,COc1cccc(NC(=O)NC(CCSC)C(=O)O)c1 (stereo unspecified),"inconclusive: 0.562 µM [inhibitor, full curve, poor fit]"
15,CC(=O)c1cccc(NC(=O)C(Nc2ccc3oc(C)nc3c2)c2ccccc2)c1 (stereo unspecified),inactive
16,O[C@@H]1CN(CC2CCNCC2)CC[C@H]1c1ccc2ccccc2c1,"inconclusive: 28.2 µM [inhibitor, full curve]"
17,OCC1(CC2CCCCO2)CCN(C/C=C/c2ccccc2)CC1 (stereo unspecified),inactive
18,CC(C)C(=O)Nc1ccc2c(C(C(=O)O)N3CCN(C=O)CC3)c[nH]c2c1 (stereo unspecified),"inconclusive: 44.7 µM [inhibitor, single point]"
19,N#CC1CCN(C(=O)c2cc(=O)[nH]c3ccccc23)CC1,inactive
20,Cc1[nH]n(-c2ccccc2)c(=O)c1Sc1ccc(Cl)cc1,"inconclusive: 3.55 µM [inhibitor, full curve, poor fit]"
